{"sequences": {"note": "Amino acid sequences for entries named in this document (tags omitted). A change or cut given only in a name is not applied to a line headed by its entry.", "UniProt P36897": "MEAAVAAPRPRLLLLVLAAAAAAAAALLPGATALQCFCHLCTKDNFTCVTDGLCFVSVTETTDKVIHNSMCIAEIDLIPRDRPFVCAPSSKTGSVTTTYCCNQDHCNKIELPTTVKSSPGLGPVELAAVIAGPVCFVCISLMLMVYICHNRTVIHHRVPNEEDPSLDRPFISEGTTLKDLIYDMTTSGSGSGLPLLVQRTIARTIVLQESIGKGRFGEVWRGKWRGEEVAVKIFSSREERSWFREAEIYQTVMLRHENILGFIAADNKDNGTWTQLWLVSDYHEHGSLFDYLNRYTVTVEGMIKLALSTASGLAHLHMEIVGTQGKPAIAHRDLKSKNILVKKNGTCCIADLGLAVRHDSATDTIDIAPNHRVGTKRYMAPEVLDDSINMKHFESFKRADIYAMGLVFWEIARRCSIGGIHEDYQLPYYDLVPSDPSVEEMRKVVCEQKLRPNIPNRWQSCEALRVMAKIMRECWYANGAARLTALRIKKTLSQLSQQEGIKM", "UniProt Q96AC1": "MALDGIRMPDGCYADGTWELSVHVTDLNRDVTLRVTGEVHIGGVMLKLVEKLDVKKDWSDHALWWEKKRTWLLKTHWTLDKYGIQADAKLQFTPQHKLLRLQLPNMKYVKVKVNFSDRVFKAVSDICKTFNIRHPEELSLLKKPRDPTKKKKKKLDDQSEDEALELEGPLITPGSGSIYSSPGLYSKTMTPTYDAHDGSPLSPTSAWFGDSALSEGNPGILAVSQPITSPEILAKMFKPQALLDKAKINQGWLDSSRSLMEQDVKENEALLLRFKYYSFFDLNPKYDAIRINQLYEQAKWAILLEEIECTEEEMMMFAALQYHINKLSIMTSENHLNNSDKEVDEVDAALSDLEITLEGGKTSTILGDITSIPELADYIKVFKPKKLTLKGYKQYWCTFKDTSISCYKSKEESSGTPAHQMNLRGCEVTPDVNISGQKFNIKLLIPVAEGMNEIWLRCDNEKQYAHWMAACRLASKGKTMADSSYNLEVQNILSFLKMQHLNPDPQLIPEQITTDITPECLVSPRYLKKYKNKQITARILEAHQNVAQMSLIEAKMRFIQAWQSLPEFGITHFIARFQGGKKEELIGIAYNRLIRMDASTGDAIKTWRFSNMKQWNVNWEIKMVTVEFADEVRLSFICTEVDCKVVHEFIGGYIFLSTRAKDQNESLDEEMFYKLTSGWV"}, "source": "paper PMC11534691", "molecular_target": "Recombinant TβRI protein (Abcam ab105908) (UniProt P36897)", "test": "ELISA; solid phase binding assay: β1-Integrin or TβRI immobilised on 96-well plates at 5 μg/well in TBS, 20 h 4 °C; GST-Kindlin-2 added at 0–7 µM in TBS with 1 mM CaCl2, 1 mM MgCl2, 2 h 37 °C; detected with anti-GST-HRP, absorbance at 450 nm; both purified", "note": "No constants are given. Whether binding was seen depends on the method and setting. Binding calls can cover weak binding; strength is not graded here.", "data": [{"substance": "Full-length Kindlin-2, GST fusion protein (from UniProt Q96AC1 1-680)", "values": [{"measurement": "binding", "value": "binds"}]}]}
